Measurements published in PMC10068152.
No constants are given. Whether binding was seen depends on the method and setting. In cells and extracts the contact can be indirect. Some results given as binding are weak or reduced against the parent protein; the word gives no strength.

Chains of the proteins cited; added tags and fusions are not shown.
UniProt P10415: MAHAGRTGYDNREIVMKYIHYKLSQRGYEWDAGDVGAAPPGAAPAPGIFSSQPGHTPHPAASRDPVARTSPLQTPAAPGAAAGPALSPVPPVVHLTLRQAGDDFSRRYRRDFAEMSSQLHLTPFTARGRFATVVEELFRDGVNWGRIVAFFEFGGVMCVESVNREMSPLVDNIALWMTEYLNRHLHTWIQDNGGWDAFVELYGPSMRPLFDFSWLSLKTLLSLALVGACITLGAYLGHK

Target: BCL2 (human (endogenous in Huh7-SR)) (UniProt P10415)
Test: co-IP; Huh7-SR cells, 48 h after the indicated treatments (among them coculture with MenSCs); co-IP followed by immunoblotting; which protein was precipitated is not told

Beclin1 (from UniProt Q14457 1-450)
binding: binds
